Source: paper PMC4103810, “Flexibility of PCNA-Protein Interface Accommodates Differential Binding Partners” (PLoS ONE, 2014)
Results are given in words; binding and its absence hold for the method and conditions named.

Amino acid sequences for entries named in this document (tags omitted).
UniProt P12004: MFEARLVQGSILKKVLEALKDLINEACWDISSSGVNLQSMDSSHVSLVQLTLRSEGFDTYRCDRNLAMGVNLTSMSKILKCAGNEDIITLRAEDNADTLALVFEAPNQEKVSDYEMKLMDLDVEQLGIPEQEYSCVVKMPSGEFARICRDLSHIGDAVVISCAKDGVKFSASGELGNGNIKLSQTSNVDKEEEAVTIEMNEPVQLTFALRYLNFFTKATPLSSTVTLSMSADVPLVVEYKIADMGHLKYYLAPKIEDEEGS

What was measured:
[1] = biological target: recombinant PCNA protein (N-terminal (His)6-PCNA) (human) (UniProt P12004); experiment: fluorescence polarisation; competition: increasing unlabeled peptide with 50 nM FITC-PL peptide and 1 µM PCNA (monomer concentration); 25 mM HEPES pH 7.4, 10% glycerol, 0.01% Triton X-100; 30 min at room temperature, read at 30°C; Ki from a modified Cheng-Prusoff equation; both purified
recombinant PCNA protein = biological target: T1, recombinant PCNA protein (human, UniProt P12004 1-261); experiment: fluorescence polarisation; competition: increasing unlabeled 12-mer peptide against 50 nM N-terminal FITC-PL peptide and 1 µM PCNA (monomer concentration); 25 mM HEPES pH 7.4, 10% glycerol, 0.01% Triton X-100; 30 min at room temperature, read at 30°C; fraction of FITC-PL bound fitted to the complete (Eq. 6) or incomplete (Eq. 7, four-state) competition model of Roehrl et al.; estimated dissociation constants; both purified
T1 construct: PCNA (proliferating cell nuclear antigen), human; The vector has a TEV protease site after the (His)6 tag, and no cleavage is described; also called (His)6-PCNA; source: E. coli BL21(DE3), purified (Ni-NTA, dialysis)

binding [1] | binding (recombinant PCNA protein) | Binder
no binding |  | GVQRNHETAFQG [Mcl-1 12-mer PIP Box-like peptide mimic]
 | no binding | GVQRNHETAFQG [Mcl-1 12-mer PIP Box-like peptide]
